US20220105127A1, “METHODS FOR PROVIDING THE BENEFITS OF METHIONINE RESTRICTION WITHOUT DIETARY RESTRICTION” (priority 2020, published 2022)
Entries after “also recorded” stand apart in the source; their conditions may differ. At least one structure is not confirmed: it was looked up by name or label, or the drawing left a doubt.

How the values were obtained:
Type in all cases: in vivo, mouse
C57BL/6J mice = test: Experiment 1: high-fat diet with selenium compounds, body mass, fat pad and liver mass
Procedure: (§1) All animal studies conducted were approved by the Institutional Animal Care and Use Committee (IACUC) of the Orentreich Foundation for the Advancement of Science, Inc. (Permit Number: 0511 MB). C57BL/6J mice (stock number 000664) were purchased from the Jackson Laboratories (Bar Harbor, Me.) and housed in a conventional animal facility maintained at 20±2° C., 50±10% relative humidity, with a 12 hr/12 hr light/dark photoperiod. Food and water were provided ad libitum. Upon arrival, mice were acclimatized for up to one week and fed Purina Lab Chow 5001 (Ralston Purina, Co.; St. Louis, Mo.).
At the beginning of the experiment, the mice were divided into 5 groups with each group being fed one of five isocaloric (5.3 kcal/gm) high-fat diets ad libitum for several weeks. Each high-fat diet comprising a base of 12% kcal protein, 31% kcal carbohydrate, and 57% kcal fat. The first group's diet was the control-fed diet and included the base and methionine in an amount that represented about 0.86% of the weight of the food (sometimes referred to as “control group,” “control-fed group,” or “group 1”). The second group's diet was the methionine-restricted group where the base-diet was restricted to 0.12% methionine as a percentage of the total weight of the food (sometimes referred to as “methionine-restricted group” or “group 2”). The third group was fed the base diet containing 0.86% methionine, which was supplemented with sodium selenite in an amount representing 0.0073% of the total weight of the food (sometimes referred to as “sodium selenite-supplemented group” or “group 3”). […] Amounts of selenium-containing compounds used for this and subsequent experiments were determined from pilot studies aimed at identifying minimal doses that still achieve high efficacy. […]
(§2) Body mass and food consumption were monitored once a week for sixteen weeks. […] The mice were then sacrificed, their overall body condition was assessed, and certain physiological parameters were measured. […]

plasma glucose = test: Experiment 1: high-fat diet with selenium compounds, plasma glucose; conditions: male mice, 0.0073% sodium selenite, 16 week interval
Procedure: as §1
(§3) At the beginning of the experiment, the mice were divided into 5 groups with each group being fed one of five isocaloric (5.3 kcal/gm) high-fat diets ad libitum for several weeks. Each high-fat diet comprising a base of 12% kcal protein, 31% kcal carbohydrate, and 57% kcal fat. […] Amounts of selenium-containing compounds used for this and subsequent experiments were determined from pilot studies aimed at identifying minimal doses that still achieve high efficacy. […]
as §2

insulin = test: Experiment 1: high-fat diet with selenium compounds, plasma insulin ELISA; conditions: male mice, 0.0073% sodium selenite, 16 week interval
Procedure: as §1, §3, §2

IGF-1 = test: Experiment 1: high-fat diet with selenium compounds, plasma IGF-1 ELISA; conditions: male mice, 0.0073% sodium selenite, 16 week interval
Procedure: as §1, §3, §2

leptin = test: Experiment 1: high-fat diet with selenium compounds, plasma leptin ELISA; conditions: male mice, 0.0073% sodium selenite, 16 week interval
Procedure: as §1, §3, §2

[1] = male mice, 0.0073% sodium selenite, high-fat diet, 16 week interval, p<0.0001 vs untreated

SMILES: O=[Se](O)O [Sodium Selenite, sodium selenite]
- accumulation of inguinal and perigonadal adipose tissue (FIGS. 2A, 2B) (C57BL/6J mice; [1]): robust protection against the accumulation of adipose tissue
- total weight gain (FIG. 1) (C57BL/6J mice; [1]): robust prevention of total weight gain
- protection against diet-induced obesity compared with methionine restriction (C57BL/6J mice; sodium selenite-supplemented high-fat diet): essentially identical to that observed for methionine-restricted mice
- plasma glucose level over time (FIG. 3A) (plasma glucose): maintenance of low plasma glucose and insulin levels; also recorded: reduced
- plasma insulin level over time (FIG. 3B) (insulin): maintenance of low plasma glucose and insulin levels; also recorded: reduced
- plasma IGF-1 level over time (FIG. 4A) (IGF-1): sustained reductions of plasma IGF-1 levels
- plasma leptin level over time (FIG. 4B) (leptin): maintenance of low plasma leptin levels
